Like-named read-outs stand apart in the source and are kept apart here. These are yes or no findings as the source states them, for the method shown. In cells and extracts the contact can be indirect. Some results given as binding are weak or reduced against the parent protein; the word gives no strength.
What was measured:
Assay in all cases: co-IP; overexpressed MYC-AMBRA1 (WT or mutants) precipitated with anti-MYC antibody from transfected HeLa, control or Nocodazole-treated; MYC-β-Galactosidase as control; HEMG or CHAPS buffer, 4 °C; western blot
[1] = biological target: MYC-AMBRA1 S1223A (human) (UniProt Q9C0C7)
[2] = biological target: MYC-AMBRA1 AA^1209/1223 (T1209A/S1223A) (human) (UniProt Q9C0C7)
[3] = biological target: MYC-AMBRA1 AA^1209/1223 (T1209A/S1223A) (human) (UniProt Q9C0C7); remark: listed apart in the source

Sequences of proteins named here, by UniProt entry; tags and fusion partners are left off. A change or cut given only in a name is not applied to a line headed by its entry. A line that says so, or that is headed by a name, gives the form on record, which may keep a tag or linker.
MYC-AMBRA1 S1223A (Q9C0C7, form named): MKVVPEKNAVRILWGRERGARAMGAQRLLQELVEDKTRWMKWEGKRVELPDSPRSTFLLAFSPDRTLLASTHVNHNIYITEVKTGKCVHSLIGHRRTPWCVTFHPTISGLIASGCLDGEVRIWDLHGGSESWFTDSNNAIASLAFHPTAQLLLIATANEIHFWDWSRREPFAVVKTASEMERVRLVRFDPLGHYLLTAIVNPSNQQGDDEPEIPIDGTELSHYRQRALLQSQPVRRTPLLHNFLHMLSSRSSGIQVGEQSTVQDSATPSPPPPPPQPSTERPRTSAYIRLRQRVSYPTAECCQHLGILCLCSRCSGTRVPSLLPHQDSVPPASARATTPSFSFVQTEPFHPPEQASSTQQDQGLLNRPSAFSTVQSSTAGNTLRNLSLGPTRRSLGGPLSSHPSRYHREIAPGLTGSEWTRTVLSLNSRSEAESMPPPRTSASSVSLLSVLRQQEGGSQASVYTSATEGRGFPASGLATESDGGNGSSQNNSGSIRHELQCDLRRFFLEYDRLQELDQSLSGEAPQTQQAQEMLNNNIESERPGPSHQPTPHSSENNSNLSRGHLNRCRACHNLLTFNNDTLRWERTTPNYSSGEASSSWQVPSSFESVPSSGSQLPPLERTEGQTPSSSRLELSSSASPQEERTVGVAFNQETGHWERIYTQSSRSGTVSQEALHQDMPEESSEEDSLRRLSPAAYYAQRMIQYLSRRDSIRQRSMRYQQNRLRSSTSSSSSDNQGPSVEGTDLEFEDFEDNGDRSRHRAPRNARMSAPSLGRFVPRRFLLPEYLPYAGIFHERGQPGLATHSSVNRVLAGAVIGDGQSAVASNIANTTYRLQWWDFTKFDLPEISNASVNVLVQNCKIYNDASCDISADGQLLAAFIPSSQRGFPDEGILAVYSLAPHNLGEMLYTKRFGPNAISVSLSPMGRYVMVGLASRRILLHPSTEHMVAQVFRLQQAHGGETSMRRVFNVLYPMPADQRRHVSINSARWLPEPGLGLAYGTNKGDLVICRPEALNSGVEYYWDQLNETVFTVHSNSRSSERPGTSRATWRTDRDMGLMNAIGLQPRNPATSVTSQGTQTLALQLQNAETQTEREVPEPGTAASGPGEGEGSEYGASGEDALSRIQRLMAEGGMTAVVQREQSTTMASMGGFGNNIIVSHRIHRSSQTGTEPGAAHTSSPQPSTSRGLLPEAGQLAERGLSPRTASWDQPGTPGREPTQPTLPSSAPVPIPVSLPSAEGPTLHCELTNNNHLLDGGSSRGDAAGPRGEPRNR
MYC-AMBRA1 AA^1209/1223 (T1209A/S1223A) (Q9C0C7, form named): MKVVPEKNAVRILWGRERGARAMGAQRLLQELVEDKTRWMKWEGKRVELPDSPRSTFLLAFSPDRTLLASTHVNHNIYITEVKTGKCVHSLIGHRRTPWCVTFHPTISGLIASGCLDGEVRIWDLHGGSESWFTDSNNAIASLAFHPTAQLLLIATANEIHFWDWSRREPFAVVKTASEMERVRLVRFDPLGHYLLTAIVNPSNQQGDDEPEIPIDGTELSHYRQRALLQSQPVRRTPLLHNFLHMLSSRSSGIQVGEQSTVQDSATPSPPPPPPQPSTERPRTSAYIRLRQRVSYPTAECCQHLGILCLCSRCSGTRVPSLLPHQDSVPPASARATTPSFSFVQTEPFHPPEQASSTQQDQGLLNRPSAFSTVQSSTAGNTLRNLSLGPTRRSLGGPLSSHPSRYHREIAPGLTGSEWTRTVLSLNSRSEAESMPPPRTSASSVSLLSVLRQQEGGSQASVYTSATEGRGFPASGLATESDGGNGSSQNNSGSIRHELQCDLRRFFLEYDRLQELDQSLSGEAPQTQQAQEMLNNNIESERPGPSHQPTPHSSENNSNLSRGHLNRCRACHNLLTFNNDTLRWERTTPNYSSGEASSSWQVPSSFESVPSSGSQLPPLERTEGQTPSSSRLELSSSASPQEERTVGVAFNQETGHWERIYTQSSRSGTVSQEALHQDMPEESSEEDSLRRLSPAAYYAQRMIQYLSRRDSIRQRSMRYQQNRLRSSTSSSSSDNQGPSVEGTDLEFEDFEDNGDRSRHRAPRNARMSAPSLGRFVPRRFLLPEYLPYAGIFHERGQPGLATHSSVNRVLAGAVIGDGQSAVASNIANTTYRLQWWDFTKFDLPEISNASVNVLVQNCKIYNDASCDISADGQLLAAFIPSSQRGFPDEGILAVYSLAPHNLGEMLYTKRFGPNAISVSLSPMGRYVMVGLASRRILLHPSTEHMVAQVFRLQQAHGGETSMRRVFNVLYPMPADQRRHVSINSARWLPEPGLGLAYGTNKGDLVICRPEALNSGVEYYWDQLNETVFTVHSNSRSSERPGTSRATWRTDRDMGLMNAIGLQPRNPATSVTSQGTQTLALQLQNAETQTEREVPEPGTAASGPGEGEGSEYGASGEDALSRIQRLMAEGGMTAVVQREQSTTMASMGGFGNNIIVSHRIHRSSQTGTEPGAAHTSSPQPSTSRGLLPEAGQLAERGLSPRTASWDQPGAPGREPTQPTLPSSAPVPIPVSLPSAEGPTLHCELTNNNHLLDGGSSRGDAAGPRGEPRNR
UniProt Q14980: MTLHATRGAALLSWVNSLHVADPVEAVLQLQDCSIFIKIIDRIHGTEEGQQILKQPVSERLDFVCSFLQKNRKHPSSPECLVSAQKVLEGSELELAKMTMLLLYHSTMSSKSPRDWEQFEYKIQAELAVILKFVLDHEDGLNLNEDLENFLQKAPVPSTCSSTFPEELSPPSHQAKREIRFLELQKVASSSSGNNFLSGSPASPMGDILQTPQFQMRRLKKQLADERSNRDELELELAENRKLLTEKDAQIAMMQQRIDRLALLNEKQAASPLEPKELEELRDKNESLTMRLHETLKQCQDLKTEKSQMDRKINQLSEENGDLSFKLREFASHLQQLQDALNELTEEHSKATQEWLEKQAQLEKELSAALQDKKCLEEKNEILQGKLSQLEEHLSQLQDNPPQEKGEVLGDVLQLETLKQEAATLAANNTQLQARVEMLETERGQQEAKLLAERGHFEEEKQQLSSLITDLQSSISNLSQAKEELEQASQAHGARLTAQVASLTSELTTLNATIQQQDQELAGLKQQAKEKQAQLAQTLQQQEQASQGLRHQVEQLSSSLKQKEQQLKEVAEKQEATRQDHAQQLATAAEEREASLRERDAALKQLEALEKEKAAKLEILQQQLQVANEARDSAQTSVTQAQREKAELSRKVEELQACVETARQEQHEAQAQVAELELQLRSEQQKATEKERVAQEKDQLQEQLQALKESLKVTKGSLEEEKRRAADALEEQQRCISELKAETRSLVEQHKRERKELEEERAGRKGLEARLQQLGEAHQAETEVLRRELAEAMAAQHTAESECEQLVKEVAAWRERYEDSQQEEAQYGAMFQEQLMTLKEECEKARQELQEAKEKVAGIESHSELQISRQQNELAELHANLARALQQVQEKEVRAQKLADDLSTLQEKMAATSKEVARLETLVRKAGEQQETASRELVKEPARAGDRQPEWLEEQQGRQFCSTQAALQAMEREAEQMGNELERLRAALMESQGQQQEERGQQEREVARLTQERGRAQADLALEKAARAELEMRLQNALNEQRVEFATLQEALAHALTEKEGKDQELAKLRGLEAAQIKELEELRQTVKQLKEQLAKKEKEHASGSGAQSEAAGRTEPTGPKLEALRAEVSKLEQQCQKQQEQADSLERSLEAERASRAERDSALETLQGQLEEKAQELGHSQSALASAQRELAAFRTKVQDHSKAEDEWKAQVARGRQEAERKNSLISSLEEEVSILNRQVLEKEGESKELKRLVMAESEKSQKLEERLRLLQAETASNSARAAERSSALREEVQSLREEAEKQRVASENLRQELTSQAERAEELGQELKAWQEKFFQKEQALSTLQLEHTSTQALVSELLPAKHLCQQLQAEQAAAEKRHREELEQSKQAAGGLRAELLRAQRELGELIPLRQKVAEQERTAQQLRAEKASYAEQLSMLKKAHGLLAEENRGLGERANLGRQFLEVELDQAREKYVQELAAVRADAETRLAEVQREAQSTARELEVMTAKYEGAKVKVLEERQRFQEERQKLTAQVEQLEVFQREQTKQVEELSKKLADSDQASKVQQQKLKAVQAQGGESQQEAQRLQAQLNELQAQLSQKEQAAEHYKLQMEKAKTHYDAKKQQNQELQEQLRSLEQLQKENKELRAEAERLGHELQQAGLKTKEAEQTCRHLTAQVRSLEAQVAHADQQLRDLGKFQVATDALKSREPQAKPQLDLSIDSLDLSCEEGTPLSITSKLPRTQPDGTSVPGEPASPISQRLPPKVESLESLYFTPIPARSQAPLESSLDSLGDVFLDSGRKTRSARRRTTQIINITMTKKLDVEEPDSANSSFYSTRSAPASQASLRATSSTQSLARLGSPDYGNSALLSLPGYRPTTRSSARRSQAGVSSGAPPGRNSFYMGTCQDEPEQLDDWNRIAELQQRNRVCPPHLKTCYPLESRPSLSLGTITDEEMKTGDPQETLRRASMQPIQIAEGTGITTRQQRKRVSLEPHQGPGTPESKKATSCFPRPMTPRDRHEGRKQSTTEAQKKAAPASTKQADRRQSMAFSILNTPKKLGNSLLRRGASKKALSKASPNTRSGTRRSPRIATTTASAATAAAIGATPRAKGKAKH

Molecule	binding [1]	binding [2]	binding [3]
Polo-like kinase 1 (from UniProt P53350 1-603) (enzyme)	binds	binds	–
Nuclear mitotic apparatus 1 (from UniProt Q14980 1-2115)	–	binds	–
Aurora Kinase A (enzyme, UniProt O14965 1-403) MDRSKENCISGPVKATAPVGGPKRVLVTQQFPCQNPLPVNSGQAQRVLCPSNSSQRIPLQAQKLVSSHKPVQNQKQKQLQATSVPHPVSRPLNNTQKSKQPLPSAPENNPEEELASKQKNEESKKRQWALEDFEIGRPLGKGKFGNVYLAREKQSKFILALKVLFKAQLEKAGVEHQLRREVEIQSHLRHPNILRLYGYFHDATRVYLILEYAPLGTVYRELQKLSKFDEQRTATYITELANALSYCHSKRVIHRDIKPENLLLGSAGELKIADFGWSVHAPSSRRTTLCGTLDYLPPEMIEGRMHDEKVDLWSLGVLCYEFLVGKPPFEANTYQETYKRISRVEFTFPDFVTEGARDLISRLLKHNPSQRPMLREVLEHPWITANSSKPSNCQNKESASKQS	–	–	binds

From PMC10432340
